According to the supplement of paper PMC10849652:
This is one part of the list.

Sequences of proteins named here, by UniProt entry; tags and fusion partners are left off. A change or cut given only in a name is not applied to a line headed by its entry.
UniProt Q96PC3: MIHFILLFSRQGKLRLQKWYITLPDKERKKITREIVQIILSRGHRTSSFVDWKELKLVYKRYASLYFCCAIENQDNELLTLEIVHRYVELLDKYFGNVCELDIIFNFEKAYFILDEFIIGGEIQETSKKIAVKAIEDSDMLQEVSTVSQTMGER
UniProt Q9Y303: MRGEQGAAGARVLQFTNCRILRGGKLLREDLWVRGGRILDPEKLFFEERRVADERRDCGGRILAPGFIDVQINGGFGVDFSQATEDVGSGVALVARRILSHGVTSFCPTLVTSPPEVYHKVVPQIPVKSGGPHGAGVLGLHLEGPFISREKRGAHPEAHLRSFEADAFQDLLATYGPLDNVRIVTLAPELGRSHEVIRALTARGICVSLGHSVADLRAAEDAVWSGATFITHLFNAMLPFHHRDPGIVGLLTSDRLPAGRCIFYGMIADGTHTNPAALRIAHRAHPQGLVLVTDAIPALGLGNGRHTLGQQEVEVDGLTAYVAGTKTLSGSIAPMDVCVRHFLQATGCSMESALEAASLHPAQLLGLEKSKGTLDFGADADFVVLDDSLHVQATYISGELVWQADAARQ
UniProt Q9NYG5, whole entry, looked up: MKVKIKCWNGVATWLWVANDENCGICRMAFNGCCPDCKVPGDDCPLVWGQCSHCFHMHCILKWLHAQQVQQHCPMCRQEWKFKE
UniProt Q5I7T1: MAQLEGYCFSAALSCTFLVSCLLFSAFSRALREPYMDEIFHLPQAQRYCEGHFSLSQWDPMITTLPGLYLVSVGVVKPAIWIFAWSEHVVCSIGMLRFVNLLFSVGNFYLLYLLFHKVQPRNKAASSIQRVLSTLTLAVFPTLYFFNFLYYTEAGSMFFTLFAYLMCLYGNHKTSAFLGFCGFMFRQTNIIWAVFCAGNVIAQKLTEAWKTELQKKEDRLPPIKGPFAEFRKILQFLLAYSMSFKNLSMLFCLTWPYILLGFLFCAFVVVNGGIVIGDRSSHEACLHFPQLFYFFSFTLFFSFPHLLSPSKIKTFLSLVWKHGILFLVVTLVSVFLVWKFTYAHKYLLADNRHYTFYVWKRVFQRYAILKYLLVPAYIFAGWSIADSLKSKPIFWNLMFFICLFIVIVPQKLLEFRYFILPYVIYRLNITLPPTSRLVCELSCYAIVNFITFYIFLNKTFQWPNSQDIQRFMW
UniProt Q7Z6G8: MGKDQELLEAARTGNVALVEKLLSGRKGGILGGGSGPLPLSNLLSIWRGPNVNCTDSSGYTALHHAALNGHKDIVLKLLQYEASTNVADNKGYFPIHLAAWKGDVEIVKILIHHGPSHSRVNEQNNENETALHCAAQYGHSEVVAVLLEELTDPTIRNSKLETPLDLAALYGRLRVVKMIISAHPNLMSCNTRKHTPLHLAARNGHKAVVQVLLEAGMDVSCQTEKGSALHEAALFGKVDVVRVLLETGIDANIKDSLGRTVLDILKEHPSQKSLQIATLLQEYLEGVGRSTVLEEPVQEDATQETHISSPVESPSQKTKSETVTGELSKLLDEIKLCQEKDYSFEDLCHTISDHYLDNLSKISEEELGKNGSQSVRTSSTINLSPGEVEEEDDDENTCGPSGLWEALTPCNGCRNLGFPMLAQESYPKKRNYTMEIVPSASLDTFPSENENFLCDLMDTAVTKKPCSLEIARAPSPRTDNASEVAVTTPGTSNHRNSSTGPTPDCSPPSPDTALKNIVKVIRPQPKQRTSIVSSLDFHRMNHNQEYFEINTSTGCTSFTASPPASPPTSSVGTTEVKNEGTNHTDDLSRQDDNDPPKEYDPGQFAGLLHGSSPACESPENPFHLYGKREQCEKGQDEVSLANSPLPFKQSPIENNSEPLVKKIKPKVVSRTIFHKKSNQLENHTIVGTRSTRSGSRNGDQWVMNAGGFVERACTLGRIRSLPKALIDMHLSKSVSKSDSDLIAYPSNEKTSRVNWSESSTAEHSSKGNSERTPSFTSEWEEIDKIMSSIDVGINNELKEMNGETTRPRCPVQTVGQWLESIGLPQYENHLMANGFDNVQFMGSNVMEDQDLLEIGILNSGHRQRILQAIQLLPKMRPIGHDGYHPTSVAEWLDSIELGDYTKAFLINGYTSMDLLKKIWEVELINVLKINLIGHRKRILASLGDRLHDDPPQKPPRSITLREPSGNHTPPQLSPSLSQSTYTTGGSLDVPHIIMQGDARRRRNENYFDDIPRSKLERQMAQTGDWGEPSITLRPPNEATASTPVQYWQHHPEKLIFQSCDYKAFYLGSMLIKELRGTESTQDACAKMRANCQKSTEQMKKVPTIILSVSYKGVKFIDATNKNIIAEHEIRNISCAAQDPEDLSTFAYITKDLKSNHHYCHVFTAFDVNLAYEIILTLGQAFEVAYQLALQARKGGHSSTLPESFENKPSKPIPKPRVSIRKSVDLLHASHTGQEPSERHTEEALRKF
UniProt Q96F25: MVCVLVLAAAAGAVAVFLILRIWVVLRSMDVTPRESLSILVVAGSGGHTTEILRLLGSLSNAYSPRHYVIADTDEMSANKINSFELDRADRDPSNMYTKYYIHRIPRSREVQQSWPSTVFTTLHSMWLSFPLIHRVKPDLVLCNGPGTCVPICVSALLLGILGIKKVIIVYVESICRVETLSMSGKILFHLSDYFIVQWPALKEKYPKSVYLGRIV
UniProt Q9BS18, whole entry, looked up: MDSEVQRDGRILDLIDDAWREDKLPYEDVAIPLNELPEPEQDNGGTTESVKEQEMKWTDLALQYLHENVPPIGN
UniProt Q53RE8: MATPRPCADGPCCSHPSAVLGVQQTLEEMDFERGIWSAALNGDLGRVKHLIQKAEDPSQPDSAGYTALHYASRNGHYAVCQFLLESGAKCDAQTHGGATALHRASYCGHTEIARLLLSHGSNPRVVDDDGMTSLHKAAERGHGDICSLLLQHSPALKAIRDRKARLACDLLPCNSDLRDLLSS
UniProt Q4VCS5: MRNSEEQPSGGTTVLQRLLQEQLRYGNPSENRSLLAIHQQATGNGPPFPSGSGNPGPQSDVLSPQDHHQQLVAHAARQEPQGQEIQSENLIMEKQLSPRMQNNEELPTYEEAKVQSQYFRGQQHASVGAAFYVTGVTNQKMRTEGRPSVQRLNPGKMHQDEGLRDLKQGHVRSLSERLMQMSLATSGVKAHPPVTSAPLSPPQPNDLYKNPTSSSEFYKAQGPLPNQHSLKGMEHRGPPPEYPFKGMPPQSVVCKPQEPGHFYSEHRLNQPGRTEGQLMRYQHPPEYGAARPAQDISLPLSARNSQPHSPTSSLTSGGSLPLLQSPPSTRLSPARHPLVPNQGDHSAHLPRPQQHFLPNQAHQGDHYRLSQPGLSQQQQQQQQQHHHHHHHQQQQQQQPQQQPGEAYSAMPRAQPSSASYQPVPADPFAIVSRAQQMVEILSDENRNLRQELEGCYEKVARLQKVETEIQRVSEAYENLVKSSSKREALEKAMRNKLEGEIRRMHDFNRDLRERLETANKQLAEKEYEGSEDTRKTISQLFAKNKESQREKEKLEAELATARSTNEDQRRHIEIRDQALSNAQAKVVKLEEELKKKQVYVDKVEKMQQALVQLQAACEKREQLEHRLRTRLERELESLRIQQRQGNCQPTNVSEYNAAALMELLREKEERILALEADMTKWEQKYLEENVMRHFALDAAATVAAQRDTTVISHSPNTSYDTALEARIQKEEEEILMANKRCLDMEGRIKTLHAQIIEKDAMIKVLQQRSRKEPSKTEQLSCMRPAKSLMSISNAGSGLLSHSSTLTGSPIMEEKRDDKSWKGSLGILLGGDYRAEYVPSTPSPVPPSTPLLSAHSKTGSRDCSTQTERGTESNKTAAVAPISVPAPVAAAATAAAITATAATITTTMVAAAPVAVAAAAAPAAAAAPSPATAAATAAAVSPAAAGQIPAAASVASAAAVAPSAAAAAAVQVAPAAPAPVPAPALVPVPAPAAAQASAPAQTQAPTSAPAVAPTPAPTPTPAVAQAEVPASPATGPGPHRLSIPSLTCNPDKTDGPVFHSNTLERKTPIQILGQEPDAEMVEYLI
UniProt P47895: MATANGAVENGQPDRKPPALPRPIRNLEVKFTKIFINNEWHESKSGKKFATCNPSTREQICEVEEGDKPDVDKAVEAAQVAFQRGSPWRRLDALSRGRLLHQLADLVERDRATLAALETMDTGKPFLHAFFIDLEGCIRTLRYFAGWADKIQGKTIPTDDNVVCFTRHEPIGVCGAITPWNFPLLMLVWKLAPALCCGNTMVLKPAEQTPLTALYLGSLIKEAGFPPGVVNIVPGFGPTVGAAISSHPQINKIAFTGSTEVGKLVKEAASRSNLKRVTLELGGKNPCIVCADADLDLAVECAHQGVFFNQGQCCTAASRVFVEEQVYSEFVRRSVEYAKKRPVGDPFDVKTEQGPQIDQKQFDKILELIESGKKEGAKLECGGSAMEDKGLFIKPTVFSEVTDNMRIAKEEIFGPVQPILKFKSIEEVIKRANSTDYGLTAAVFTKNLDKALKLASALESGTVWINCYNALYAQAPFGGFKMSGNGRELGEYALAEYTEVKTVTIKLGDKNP
UniProt Q6UB98: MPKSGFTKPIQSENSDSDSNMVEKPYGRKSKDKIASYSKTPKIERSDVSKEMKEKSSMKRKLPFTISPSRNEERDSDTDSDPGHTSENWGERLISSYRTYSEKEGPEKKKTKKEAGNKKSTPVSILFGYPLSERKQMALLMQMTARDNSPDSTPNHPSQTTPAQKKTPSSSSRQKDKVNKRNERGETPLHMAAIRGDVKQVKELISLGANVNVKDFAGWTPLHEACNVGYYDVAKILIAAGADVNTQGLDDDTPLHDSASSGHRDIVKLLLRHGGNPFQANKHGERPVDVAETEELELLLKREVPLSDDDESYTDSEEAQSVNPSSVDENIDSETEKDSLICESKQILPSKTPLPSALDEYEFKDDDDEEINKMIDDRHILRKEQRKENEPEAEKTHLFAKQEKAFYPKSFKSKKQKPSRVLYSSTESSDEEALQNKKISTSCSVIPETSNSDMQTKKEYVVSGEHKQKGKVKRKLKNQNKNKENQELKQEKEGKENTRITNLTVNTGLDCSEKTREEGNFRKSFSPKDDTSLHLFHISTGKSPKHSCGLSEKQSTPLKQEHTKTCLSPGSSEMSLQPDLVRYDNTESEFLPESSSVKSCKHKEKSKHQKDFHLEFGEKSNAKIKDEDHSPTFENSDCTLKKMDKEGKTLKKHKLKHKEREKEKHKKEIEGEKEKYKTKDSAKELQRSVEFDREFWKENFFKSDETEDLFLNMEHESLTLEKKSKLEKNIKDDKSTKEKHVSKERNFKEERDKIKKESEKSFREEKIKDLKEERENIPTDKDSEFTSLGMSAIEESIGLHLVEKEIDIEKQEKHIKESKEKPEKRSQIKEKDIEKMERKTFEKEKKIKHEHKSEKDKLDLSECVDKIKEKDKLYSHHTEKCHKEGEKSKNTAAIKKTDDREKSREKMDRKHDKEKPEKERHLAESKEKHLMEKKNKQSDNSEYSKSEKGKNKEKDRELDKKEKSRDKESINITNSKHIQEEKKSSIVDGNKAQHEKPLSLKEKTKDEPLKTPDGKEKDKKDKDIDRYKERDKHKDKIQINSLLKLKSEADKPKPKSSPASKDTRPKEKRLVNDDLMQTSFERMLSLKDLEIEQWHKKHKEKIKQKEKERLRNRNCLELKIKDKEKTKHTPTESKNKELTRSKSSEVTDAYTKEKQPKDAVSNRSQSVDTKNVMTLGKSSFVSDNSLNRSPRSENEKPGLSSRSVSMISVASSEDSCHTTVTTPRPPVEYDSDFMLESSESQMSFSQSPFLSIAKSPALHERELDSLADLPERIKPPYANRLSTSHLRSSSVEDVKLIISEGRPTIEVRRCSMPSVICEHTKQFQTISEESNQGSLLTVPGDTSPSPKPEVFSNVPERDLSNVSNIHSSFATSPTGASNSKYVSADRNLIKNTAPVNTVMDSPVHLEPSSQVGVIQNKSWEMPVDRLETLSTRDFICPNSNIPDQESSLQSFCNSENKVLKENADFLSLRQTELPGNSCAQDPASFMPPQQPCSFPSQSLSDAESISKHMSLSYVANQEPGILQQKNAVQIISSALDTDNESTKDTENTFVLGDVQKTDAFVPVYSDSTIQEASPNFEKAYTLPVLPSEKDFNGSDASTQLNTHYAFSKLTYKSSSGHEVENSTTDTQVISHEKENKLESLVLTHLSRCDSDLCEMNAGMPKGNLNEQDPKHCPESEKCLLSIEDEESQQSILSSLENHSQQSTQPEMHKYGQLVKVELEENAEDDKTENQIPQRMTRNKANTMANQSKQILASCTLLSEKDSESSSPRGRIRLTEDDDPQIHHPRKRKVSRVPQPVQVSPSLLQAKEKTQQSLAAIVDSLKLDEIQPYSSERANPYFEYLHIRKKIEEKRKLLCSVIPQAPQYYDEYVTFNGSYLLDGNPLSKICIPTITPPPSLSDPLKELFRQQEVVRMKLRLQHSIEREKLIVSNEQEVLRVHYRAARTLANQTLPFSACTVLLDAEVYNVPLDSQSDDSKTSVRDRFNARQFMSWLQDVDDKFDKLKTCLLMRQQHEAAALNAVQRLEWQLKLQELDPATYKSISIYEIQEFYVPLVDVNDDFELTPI

Key:
Test in all cases: log2 fold change, soluble protein after heating vs DMSO (PISA); higher = thermal stabilisation; K562 lysate, 10 uM; active = over 0.2 and 3.5 SD of the protein, either way, in both replicates (recomputed)
alvocidib = compound: CN1CC[C@H](c2c(O)cc(O)c3c(=O)cc(-c4ccccc4Cl)oc23)[C@H](O)C1 [alvocidib]
How it was run: (§1)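 Dounce homogenisation of K562 pellets in PBS pH 7.4 with 1 mM MgCl2 produced a crude extract, used at 1 mg/mL protein. Exposure to 10 μM compound lasted 30 min, and aliquots were then heated for 3 min across 48°C-58°C, pooled and brought to 0.5% NP-40 at 4°C. The supernatant after 21,000xg for 90 min was quantified by TMTpro 16plex LC-MS/MS with channel sums equalised. Duplicate values are given as log-two fold change in thermal stability relative to solvent controls.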

Tubastatin A = compound: CN1CCc2c(c3ccccc3n2Cc2ccc(C(=O)NO)cc2)C1 [Tubastatin A]
How it was run: as §1

[1] = compound: CNc1nc(-c2ccc3c(N)n[nH]c3c2)cc(N2C[C@@H](C(=O)NC3CCCCC3)CC[C@H]2C)n1
How it was run: as §1

encorafenib = compound: COC(=O)N[C@@H](C)CNc1nccc(-c2cn(C(C)C)nc2-c2cc(Cl)cc(NS(C)(=O)=O)c2F)n1 [encorafenib]
How it was run: as §1

[2] = compound: COC(=O)[C@H](CCSC)NC(=O)C1=C(C=C(C=C1)NC[C@H](CS)N)C2=CC=CC=C2
How it was run: as §1

alisertib = compound: COc1cc(Nc2ncc3c(n2)-c2ccc(Cl)cc2C(c2c(F)cccc2OC)=NC3)ccc1C(=O)O [alisertib]
How it was run: as §1

[3] = compound: COc1cc2nc(-c3cc(F)ccc3O)nc(N[C@@H]3CNC[C@H]3C(C)(C)O)c2cc1OC
How it was run: as §1

gefitinib = compound: COc1cc2ncnc(Nc3ccc(F)c(Cl)c3)c2cc1OCCCN1CCOCC1 [gefitinib]
How it was run: as §1

[4] = compound: CNC(=O)C1=CC=CC=C1NC2=NC(=NC=C2Cl)NC3=C(C=C(C=C3)N4CCOCC4)OC
How it was run: as §1

defactinib = compound: CNC(=O)c1ccc(Nc2ncc(C(F)(F)F)c(NCc3nccnc3N(C)S(C)(=O)=O)n2)cc1 [defactinib]
How it was run: as §1

Measured: log2 fold change

ALAS1 (UniProt P13196)
inactive: alvocidib -0.027 | Tubastatin A 0.031 | [1] 0.177 | encorafenib 0.12 | [2] -0.279 | alisertib -0.089 | [3] -0.183 | gefitinib 0.001

AP1S2 (UniProt P56377)
inactive: alvocidib -0.486 | Tubastatin A -0.023 | [4] 0.098 | defactinib 0.008 | encorafenib -0.119 | [2] -0.044 | alisertib 0.187 | [3] 0.014 | gefitinib -0.046

AP3D1 isoform 2 (UniProt O14617)
inactive: alvocidib 0.25 | [4] -0.06 | defactinib 0.078 | alisertib 0.093 | [3] 0.087 | gefitinib 0.111

AP1S3 isoform 4 (UniProt Q96PC3)
inactive: alvocidib -0.021 | Tubastatin A -0.053 | [4] -0.092 | [1] 0.052 | alisertib 0.156 | [3] -0.113 | gefitinib 0

ALKBH1 (UniProt Q13686)
inactive: alvocidib 0.003 | Tubastatin A -0.018 | [4] -0.113 | defactinib -0.008 | [1] 0.027 | encorafenib -0.016 | [2] 0.073 | alisertib -0.044 | gefitinib -0.07

AMDHD2 (UniProt Q9Y303)
inactive: alvocidib 0.012 | defactinib -0.059

ANAPC11 (UniProt Q9NYG5)
inactive: alvocidib -0.026 | Tubastatin A -0.009 | [1] -0.07

ANK2 (UniProt Q01484)
inactive: alvocidib 0.098 | Tubastatin A 0.038 | [1] 0.128 | alisertib 0.062 | gefitinib -0.02

ALG3 (UniProt Q92685)
inactive: alvocidib -0.04 | Tubastatin A -0.009 | [4] -0.436 | defactinib 0.165 | [1] -0.043 | encorafenib -0.061 | [2] 0.171 | [3] -0.033

ALG10B (UniProt Q5I7T1)
inactive: alvocidib 0.117 | Tubastatin A 0.016 | [4] 0.029 | [1] -0.086 | alisertib 0.083 | [3] 0.046 | gefitinib 0.038

ANAPC15 isoform 2 (UniProt P60006)
inactive: alvocidib 0.046 | [4] 0.037 | [1] 0.214 | encorafenib -0.041 | [2] 0.221 | alisertib 0.072 | gefitinib -0.096

ANKLE2 (UniProt Q86XL3)
inactive: alvocidib -0.013 | Tubastatin A 0.002 | [4] -0.004 | defactinib 0.038 | [1] 0.045 | encorafenib -0.041 | [2] 0.145 | alisertib -0.032 | gefitinib 0.005

ANKS6 isoform 4 (UniProt Q68DC2)
inactive: Tubastatin A -0.115 | [4] 0.052 | [1] 0.076 | encorafenib 0.12 | [2] 0.096 | alisertib -0.024 | gefitinib 0.193

ANKS1B (UniProt Q7Z6G8)
inactive: [3] -0.011

ANKRD13B (UniProt Q86YJ7)
inactive: [1] 0.268 | encorafenib -0.005 | [2] 0.187 | [3] 0.274

ALG14 (UniProt Q96F25)
inactive: [3] -0.062

ANAPC13 (UniProt Q9BS18)
inactive: defactinib -0.02 | encorafenib 0.052 | [2] 0.001

AP1S2 (UniProt H7BZG6)
inactive: [4] -0.011

ANKRD39 (UniProt Q53RE8)
inactive: alvocidib -0.032 | [1] 0.061 | alisertib -0.051 | gefitinib -0.025

AP3S2 (UniProt P59780)
inactive: [4] 0.091 | alisertib 0.104 | [3] -0.092 | gefitinib -0.089

AP2M1 (UniProt C9JPV8)
inactive: [3] -0.243

AMOT (UniProt Q4VCS5)
inactive: Tubastatin A -0.023 | [1] 0.003 | encorafenib 0.043 | [2] -0.027 | alisertib 0.15 | gefitinib -0.116

AP2S1 (UniProt M0QZ21)
inactive: alvocidib 0.032 | [3] -0.016

ALG13 isoform 2 (UniProt Q9NP73)
inactive: alvocidib 0.003 | alisertib -0.281 | gefitinib -0.095

ALDH1A3 (UniProt P47895)
inactive: encorafenib -0.596 | [2] 0.44

ALDH9A1 (UniProt P49189)
inactive: Tubastatin A 0.024 | defactinib -0.279 | [1] -0.061

AKTIP isoform 2 (UniProt Q9H8T0)
inactive: Tubastatin A -0.02 | [4] -0.114 | [1] -0.03 | encorafenib -0.034 | [2] 0.058 | [3] 0.132

Quoted from the listing (eight entries):
ANKS1B (UniProt Q7Z6G8)
inactive: [3] -0.011

ANKRD13B (UniProt Q86YJ7)
inactive: [1] 0.268 | encorafenib -0.005 | [2] 0.187 | [3] 0.274

ALG14 (UniProt Q96F25)
inactive: [3] -0.062

ANAPC13 (UniProt Q9BS18)
inactive: defactinib -0.02 | encorafenib 0.052 | [2] 0.001

AP1S2 (UniProt H7BZG6)
inactive: [4] -0.011

ANKRD39 (UniProt Q53RE8)
inactive: alvocidib -0.032 | [1] 0.061 | alisertib -0.051 | gefitinib -0.025

AP3S2 (UniProt P59780)
inactive: [4] 0.091 | alisertib 0.104 | [3] -0.092 | gefitinib -0.089

AP2M1 (UniProt C9JPV8)
inactive: [3] -0.243

(next part)

ANKIB1 (UniProt Q9P2G1)
inactive: Tubastatin A -0.205

ANKRD12 (UniProt Q6UB98)
inactive: Tubastatin A -0.087 | encorafenib -0.049 | [2] -0.157
